PubChem BioAssay AID1508615 (Milbrandt Lab, Department of Genetics, Washington …, 2020)
About 20 (1%) of roughly 1,600 compounds were called active.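 Rule for the calls: active = ratio of uncleaved NAD to its breakdown product ADP-ribose above 4, meaning the enzyme was inhibited; inactive = the rest.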 Some of the results follow.

Protein sequences, listed by entry. Tags and fused reporters are not part of them. Lines headed by an entry give the natural chain unless they say otherwise; changes in a name come on top.
UniProt Q6SZW1: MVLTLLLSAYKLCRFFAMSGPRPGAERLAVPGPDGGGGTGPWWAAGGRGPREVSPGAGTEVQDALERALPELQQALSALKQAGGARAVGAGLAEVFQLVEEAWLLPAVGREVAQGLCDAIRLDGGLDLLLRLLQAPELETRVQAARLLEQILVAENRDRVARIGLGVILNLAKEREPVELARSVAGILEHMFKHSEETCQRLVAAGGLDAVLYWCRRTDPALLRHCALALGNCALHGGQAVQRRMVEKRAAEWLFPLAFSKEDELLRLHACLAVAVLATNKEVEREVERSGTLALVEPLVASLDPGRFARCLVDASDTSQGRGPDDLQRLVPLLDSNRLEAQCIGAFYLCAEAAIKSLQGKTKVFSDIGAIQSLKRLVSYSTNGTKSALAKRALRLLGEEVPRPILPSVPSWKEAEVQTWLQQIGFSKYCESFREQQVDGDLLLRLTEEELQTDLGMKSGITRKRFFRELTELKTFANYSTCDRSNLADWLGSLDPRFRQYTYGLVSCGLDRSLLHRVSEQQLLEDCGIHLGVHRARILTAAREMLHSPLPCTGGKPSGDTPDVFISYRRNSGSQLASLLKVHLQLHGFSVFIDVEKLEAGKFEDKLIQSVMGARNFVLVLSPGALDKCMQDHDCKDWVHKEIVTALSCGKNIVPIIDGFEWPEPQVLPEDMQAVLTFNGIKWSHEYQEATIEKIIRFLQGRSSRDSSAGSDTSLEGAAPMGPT

Each compound was assayed against NAD(+) hydrolase SARM1 (Homo sapiens) (UniProt Q6SZW1) (assay: inhibition of SAM-TIR NAD hydrolysis to ADPR – cell lysate, HPLC readout, primary screen (AID 1508615;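 note: substrate NAD at 5 µM with 60 min at 37 °C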)). Settings: HEK293T SAM-TIR lysate, NAD/ADPR ratio by HPLC; at 5 µM; hits give high values.

NAD/ADPR ratio, active:
CC1(C)CC[C@]2(C(=O)n3ccnc3)CC[C@]3(C)[C@H](C(=O)C=C4[C@@]5(C)C=C(C#N)C(=O)C(C)(C)[C@@H]5CC[C@]43C)[C@@H]2C1 6.5
COc1ccc2c(c1)c1ccc3c(c1n2C)C(=O)C=CC3=O 7.6

NAD/ADPR ratio, inactive:
COc1cc(S(N)(=O)=O)c(OC)cc1N 3
Cc1cc(N(C)C)ccc1N=Nc1ccc2ncccc2c1 3
Cc1ccc(NC(=O)Nc2ccccc2C(N)=O)cc1 3
CC(=O)OC1CCC2(C)C(=CCC3C2CCC2(C)C3CC3OC4(CCC(C)CN4)C(C)C32)C1 (configuration not stated) 3
O=C1NCCc2c1[nH]c1ccccc21 3
C=C(C)c1nc(Oc2ccccc2)nc(Oc2ccccc2)n1 3
N#Cc1cnn2ccn(C3OC(CO)C(O)C3O)c12 (configuration not stated) 3
CN1C2CCC1CC(OC(c1ccccc1)c1ccccc1)C2 (configuration not stated) 3
O=c1cc/c(=N\Nc2ccccc2)c(=O)/c1=N/Nc1ccccc1 3
O=C(O)CCC(=O)OCCN(Cc1ccc(Oc2ccc([N+](=O)[O-])cc2)cc1)C(=O)C(Cl)Cl 3
N#Cc1[nH]nc2nc[nH]c(=O)c12 3
c1ccc2c(c1)Oc1cccc3cccc-2c13 3
CN(CC(=O)O)Cc1oc(CO)cc(=O)c1O 3
CCCCn1ccnc1C 3
Cc1cc(-c2ccc(N3C(=O)CC4(CCCC4)C3=O)c(C)c2)ccc1N1C(=O)CC2(CCCC2)C1=O 3
O=[N+]([O-])c1cccnc1Oc1cccnc1 3
CCOc1ccc(Nc2c3ccccc3nc3ccccc23)cc1 3
COc1ccc(/C(C#N)=C/c2ccccn2)cc1 3
Cc1cc2nc(CS)[nH]c2cc1C 3
CCCCN1C(=O)CC2CCOC21C (configuration not stated) 3
COc1ccc(C2C3=C(COC3=O)Oc3cc4c(cc32)OCO4)cc1OC (configuration not stated) 3
c1ccc(Sc2ncccn2)nc1 3
Cc1ccc(Nc2c(O)nc[nH]c2=O)cc1C 3
Nc1ccc(S(=O)(=O)NCC2CCCCO2)cc1 (configuration not stated) 3
CCOC(=O)Nc1ccc(C(=O)/C=C/c2ccccc2)cc1 3
O=C(CCl)NC1(C(=O)O)CCCC1 3
C#Cc1cccc(NC(=O)c2ccc(Cl)cc2Cl)c1 3
O=[N+]([O-])c1cc(-c2cccnc2)n[nH]1 3
O=C(C(=O)c1cccnc1)c1cccnc1 3
OCc1nnn(-c2ccccc2)c1CO 3
NNC(=O)c1nnsc1-c1csnn1 3
CCN1CCCCC(=N/O)/C(=N/O)CCCC1 3
Cc1ccc2c(c1)C(=C(C#N)C#N)CCN2 3
Clc1ncnc2[nH]ccc12 3
CCCN(CCC)c1ccc(/C=C/c2ccc3cc(OCC)ccc3n2)cc1 3
O=C(O)C(C=C(Cl)Cl)N1CCOCC1 (configuration not stated) 3
O=C(CSc1nc2ccc([N+](=O)[O-])cc2s1)c1ccc2ccccc2c1 3
Nc1nc2ccc([N+](=O)[O-])cc2[nH]1 3
CC(=O)NC1(C(=O)O)CCCC1 3
Nc1ccc(C(=O)Oc2ccc([N+](=O)[O-])cc2)cc1 3
c1cncc(-c2nc3ccccc3s2)c1 3
N#Cc1ccc(NC2c3ccccc3CC2O)cc1 (configuration not stated) 3
O=c1[nH]c(SCc2ccccc2[N+](=O)[O-])nc2nc[nH]c12 3
Cc1ccc(/C=C2\CCOC2=O)cc1 3
Nc1nc(=S)ss1 3
CCOC(=O)c1[nH]c(C(=O)O)c(OC(=O)CC)c1C 3
ClC(Cl)(Cl)C1=NCc2nnn(Cc3ccccc3)c2N1 3
COc1ccccc1NC(=O)c1cc2ccccc2cc1O 3
Nc1n[nH]c(=S)n1-c1ccc(Cl)cc1 3
c1ccc(CSc2nc3ncncc3[nH]2)cc1 3
C#CCSc1n[nH]c(-c2ccco2)n1 3
CCCCCc1cccnc1 3
O=Cc1c[nH]c2ncccc12 3
C1C2CC3C1C3/C2=N\N=C1/C2CC3C(C2)C13 3
Cc1cc2cc3c(=O)[nH]c(=O)cc-3n(CC(O)C(O)C(O)CO)c2cc1C (configuration not stated) 3.3
FC(F)(F)c1cccc(OCC2CNC(=S)O2)c1 (configuration not stated) 3
O=C(Nc1ccc(Cl)c(Cl)c1)c1ccc(Cl)c(Cl)c1 3
Cc1[nH]c(N=Nc2ccccc2)nc1N=Nc1ccccc1 3
CC1(C)O[C@H]2CC(=O)OC[C@]23[C@H]2CC[C@@]4(C)[C@H](c5ccoc5)OC(=O)[C@H]5O[C@]54[C@]2(C)C(=O)C[C@@H]13 3
COc1cc2c(cc1OC)C(/C=C/c1ccco1)=NCC2 3
O=C(Nc1ccc(NC(=O)c2ccncc2)cc1)c1ccncc1 3
CCOc1ccc(NC(=S)NC(=O)c2ccco2)cc1 3
CC1CC=C(O)C12OCC(C)(C)CO2 (configuration not stated) 3
COCC(O)Cn1ccnc1[N+](=O)[O-] (configuration not stated) 3
COC(=O)C1=C(C(=O)OC)[C@@H]2CCC[C@H]1[C@H]1[C@@H]2N=NN1c1ccccc1 3
O=C1OCC/C1=C\c1ccc2c(c1)OCO2 3
O=C(/C=C/c1cccnc1)c1ccccc1O 3
CC1(C)CCCC2(C)C(OCCO)=CC(=O)C=C12 (configuration not stated) 3
COc1ccccc1N1C(=O)CC(Sc2ccccc2N)C1=O (configuration not stated) 3
O=C1NCN(CCO)CN1 3
Cc1csc(NC(=O)c2ccc(C(=O)Nc3nc(C)cs3)cc2)n1 3
CC(=O)/C=C(\C)Nc1ccccc1O 3
NC(=O)c1nc2c([nH]c1=O)CCCC2 3
O=C(O)/C=C\c1cc2c(cc1[N+](=O)[O-])OCO2 3
O=C(O)CCC1(c2ccccc2)NC(=O)NC1=O (configuration not stated) 3

Not a retest: entries from further up.
NAD/ADPR ratio, inactive:
Cc1[nH]c(N=Nc2ccccc2)nc1N=Nc1ccccc1 3
CC1(C)O[C@H]2CC(=O)OC[C@]23[C@H]2CC[C@@]4(C)[C@H](c5ccoc5)OC(=O)[C@H]5O[C@]54[C@]2(C)C(=O)C[C@@H]13 3
COc1cc2c(cc1OC)C(/C=C/c1ccco1)=NCC2 3
O=C(Nc1ccc(NC(=O)c2ccncc2)cc1)c1ccncc1 3
CCOc1ccc(NC(=S)NC(=O)c2ccco2)cc1 3
